Binding data for 1 substance are collected here from publication doi:10.1101/2020.06.04.134395.

The chains behind the UniProt entries cited, without tags or fusion partners. Residues count along the entry.
UniProt P00282, 21-148: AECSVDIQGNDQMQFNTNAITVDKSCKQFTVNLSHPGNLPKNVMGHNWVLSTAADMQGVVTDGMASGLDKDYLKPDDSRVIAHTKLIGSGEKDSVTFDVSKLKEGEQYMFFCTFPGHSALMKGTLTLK

These are yes or no findings as the source states them, for the method shown.

The assay concerns the target T1, Pseudomonas aeruginosa OprC (PA3790), OM-purified, wild type (P. aeruginosa PAO1) (UniProt G3XD89).
T1 sequence: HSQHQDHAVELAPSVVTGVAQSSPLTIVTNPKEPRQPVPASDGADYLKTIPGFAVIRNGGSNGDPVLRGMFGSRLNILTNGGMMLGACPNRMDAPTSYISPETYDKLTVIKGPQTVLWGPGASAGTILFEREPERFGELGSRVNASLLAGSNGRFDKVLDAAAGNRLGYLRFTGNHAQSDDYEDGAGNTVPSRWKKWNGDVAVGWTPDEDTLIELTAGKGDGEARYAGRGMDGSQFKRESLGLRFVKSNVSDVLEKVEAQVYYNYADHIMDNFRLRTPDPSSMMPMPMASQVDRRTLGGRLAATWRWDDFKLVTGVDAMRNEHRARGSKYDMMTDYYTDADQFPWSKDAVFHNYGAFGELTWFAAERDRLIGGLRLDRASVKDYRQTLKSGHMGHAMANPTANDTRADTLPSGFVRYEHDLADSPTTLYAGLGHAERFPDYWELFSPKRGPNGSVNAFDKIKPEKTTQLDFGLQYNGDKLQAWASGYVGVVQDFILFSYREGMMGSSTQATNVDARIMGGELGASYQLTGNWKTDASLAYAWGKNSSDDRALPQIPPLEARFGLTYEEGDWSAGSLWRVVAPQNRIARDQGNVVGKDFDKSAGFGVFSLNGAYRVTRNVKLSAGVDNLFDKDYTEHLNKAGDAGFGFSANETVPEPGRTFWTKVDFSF
Briefly: SEC. (SEC sorts molecules by how far they enter the pores of the column.)

In the case of azurin (from UniProt P00282 21-148), the binding result is on record as “no binding”.
